The text below walks through data of patent US20110275699A1, “Treatment For Obesity And Diabetes” (University of California, priority 2010, published 2011).

Sequences of proteins named here, by UniProt entry; tags and fusion partners are left off. Residues count along the entry.
UniProt Q92831: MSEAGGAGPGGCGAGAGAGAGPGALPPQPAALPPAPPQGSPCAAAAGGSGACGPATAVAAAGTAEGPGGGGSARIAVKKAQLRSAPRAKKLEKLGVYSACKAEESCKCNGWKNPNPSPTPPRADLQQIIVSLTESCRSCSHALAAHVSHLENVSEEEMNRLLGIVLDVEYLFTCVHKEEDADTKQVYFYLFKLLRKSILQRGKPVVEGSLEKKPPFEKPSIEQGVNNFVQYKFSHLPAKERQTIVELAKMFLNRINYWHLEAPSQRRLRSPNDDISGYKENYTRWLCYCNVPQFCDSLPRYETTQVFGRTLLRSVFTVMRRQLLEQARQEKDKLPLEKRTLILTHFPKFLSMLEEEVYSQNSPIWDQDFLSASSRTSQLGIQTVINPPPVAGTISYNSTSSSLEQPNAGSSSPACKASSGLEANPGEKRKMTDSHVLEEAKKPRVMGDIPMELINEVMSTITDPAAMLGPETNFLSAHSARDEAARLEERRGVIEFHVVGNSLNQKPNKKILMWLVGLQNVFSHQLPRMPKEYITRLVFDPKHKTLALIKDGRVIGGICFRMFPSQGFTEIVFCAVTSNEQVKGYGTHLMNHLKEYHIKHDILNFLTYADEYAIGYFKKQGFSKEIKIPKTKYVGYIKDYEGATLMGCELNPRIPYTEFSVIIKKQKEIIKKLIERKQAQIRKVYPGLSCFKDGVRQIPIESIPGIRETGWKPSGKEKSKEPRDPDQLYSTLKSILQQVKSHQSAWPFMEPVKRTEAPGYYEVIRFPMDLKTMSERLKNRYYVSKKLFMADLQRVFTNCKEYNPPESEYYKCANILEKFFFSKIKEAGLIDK
UniProt Q9UKV0: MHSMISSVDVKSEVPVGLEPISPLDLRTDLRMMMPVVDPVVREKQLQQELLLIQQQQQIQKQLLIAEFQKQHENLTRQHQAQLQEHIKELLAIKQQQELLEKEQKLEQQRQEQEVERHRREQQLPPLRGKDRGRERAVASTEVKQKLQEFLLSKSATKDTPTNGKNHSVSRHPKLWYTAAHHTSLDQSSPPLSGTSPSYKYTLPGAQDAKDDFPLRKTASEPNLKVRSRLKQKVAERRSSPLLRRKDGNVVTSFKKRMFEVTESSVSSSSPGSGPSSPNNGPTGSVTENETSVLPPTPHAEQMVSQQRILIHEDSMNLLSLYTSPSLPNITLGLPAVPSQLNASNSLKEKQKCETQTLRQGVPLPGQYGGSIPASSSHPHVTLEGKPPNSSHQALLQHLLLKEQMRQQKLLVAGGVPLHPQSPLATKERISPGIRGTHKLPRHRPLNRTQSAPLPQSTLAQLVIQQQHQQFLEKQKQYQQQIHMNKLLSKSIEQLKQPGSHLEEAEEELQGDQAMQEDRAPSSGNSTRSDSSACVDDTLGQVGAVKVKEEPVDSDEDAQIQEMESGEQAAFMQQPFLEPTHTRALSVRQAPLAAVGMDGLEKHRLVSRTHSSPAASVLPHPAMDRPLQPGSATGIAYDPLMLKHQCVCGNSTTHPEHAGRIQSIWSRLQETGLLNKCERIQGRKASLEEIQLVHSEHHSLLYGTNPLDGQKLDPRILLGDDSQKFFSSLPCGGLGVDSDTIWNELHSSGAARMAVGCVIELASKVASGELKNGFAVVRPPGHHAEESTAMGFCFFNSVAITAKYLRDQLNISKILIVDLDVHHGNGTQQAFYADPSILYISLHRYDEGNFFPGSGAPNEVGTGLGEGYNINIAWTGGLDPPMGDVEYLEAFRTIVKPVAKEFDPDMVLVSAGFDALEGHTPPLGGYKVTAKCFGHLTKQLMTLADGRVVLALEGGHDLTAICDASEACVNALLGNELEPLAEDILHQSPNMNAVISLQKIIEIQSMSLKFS
bHLH domain of USF-1 (P22415, residues 199-254): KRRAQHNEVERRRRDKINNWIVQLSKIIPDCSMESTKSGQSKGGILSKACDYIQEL
leucine zipper (LZ) domain of USF-1 (P22415, residues 261-310): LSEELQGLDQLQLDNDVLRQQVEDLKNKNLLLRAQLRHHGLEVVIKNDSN

These are yes or no findings as the source states them, for the method shown. In cells and extracts the contact can be indirect. Some entries that bind do so weakly or less than the wild type.

In experiment [1] the target is P/CAF, in vitro translated 35S-labeled (UniProt Q92831). Nature of the experiment: GST pull-down of USF-1 domains with in vitro translated 35S-labeled protein.
Experiment [2] concerns the target HDAC9, in vitro translated 35S-labeled (UniProt Q9UKV0). The description is as above.

Take “bHLH domain of USF-1 (from UniProt P22415 199-254)”: the binding result in experiment [1] is reported as “binds”. “leucine zipper (LZ) domain of USF-1 (from UniProt P22415 261-310)”: the binding result in experiment [2] is given as “binds”.
